From PubChem BioAssay AID1117319 (Southern Research Institute, 2015)
Among all 260,000 compounds or so, about 1,500 (0.58%) were called active. Inconclusive results, whose numbers are uncertain, are shown with a selection of clear calls.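 How the source made its calls: active means inhibition above a set limit at one or more doses, reproduced on every date tested; inconclusive means results disagree between test dates, or hit never tested in dose response; inactive means the rest.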

Sequences of proteins named here, by UniProt entry; tags and fusion partners are left off. A change or cut given only in a name is not applied to a line headed by its entry.
UniProt P69720: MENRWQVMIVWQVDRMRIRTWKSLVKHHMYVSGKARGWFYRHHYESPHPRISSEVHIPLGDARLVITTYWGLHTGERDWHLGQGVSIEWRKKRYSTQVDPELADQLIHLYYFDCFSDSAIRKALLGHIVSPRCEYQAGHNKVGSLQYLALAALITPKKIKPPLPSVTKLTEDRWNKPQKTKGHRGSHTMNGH
UniProt P69721: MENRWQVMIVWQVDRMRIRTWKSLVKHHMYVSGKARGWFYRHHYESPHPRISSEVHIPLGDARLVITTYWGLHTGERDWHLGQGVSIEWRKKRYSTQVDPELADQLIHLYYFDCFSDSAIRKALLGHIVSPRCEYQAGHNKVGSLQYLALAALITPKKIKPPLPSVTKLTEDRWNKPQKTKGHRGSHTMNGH
UniProt P69722: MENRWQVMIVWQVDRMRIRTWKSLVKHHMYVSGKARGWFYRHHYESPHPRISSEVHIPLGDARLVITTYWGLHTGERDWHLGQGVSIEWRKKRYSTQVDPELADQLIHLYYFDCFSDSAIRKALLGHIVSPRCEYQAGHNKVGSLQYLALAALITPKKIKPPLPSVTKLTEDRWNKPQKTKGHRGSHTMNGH
UniProt P69723: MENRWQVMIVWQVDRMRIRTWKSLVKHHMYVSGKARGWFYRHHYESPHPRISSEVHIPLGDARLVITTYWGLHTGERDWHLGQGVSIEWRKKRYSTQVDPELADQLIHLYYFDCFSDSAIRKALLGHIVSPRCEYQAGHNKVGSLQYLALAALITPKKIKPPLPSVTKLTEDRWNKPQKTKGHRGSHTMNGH
UniProt Q9HC16: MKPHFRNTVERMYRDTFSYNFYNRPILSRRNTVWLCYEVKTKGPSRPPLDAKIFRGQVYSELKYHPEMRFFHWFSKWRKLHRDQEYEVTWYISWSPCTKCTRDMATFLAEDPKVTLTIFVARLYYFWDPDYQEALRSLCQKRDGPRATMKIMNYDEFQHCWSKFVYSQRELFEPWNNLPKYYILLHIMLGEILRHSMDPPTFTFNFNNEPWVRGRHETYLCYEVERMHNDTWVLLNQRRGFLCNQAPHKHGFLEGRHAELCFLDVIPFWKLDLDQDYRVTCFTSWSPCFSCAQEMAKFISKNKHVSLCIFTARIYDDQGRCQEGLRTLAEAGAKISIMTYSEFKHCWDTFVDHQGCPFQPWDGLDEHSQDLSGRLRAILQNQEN

These compounds were tested against Virion infectivity factor (Human immunodeficiency virus type 1 group M subtype B (isolate BH10)) + Virion infectivity factor (Human immunodeficiency virus type 1 group M subtype B (isolate BRU/LAI)) + Virion infectivity factor (Human immunodeficiency virus type 1 group M subtype B (isolate PCV12)) + Virion infectivity factor (Human immunodeficiency virus type 1 group M subtype B (isolate HXB2)) + DNA dC->dU-editing enzyme APOBEC-3G (Homo sapiens) (UniProt P69720+P69721+P69722+P69723+Q9HC16) (assay: inhibitors of Vif binding to APOBEC3G peptide, primary screen, biochemical, TR-FRET, GST-Vif 1-94, biotin-A3G peptide, dose response retest (AID 1117319;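 further: Vif residues 1-94 fused to GST binding biotinylated APOBEC3G peptide 110-148; 0% = full assay without inhibitor and 100% = GST in place of GST-Vif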)). Details: active compounds read high.
With `COc1ccccc1NC(=O)CN(Cc1ccccc1)S(C)(=O)=O` the inhibition was inconclusive: 34.9%.
For `COc1cccc2c(=O)c(C(=O)O)c[nH]c12`, the inhibition was inconclusive: 39.3%.
With `O=C(COC(=O)c1ccc(F)cc1F)Nc1ncccn1` the inhibition was inconclusive: 54.4%.
For `CC(C)(C)NC(=S)NCc1ccco1`, the inhibition was inconclusive: 44%.
With `CC[N+]1=C(C)C(C)(C)c2cc(C)ccc21` the inhibition was inconclusive: 39.3%.
For `COC(=O)C1=C(C)N(CCc2ccccc2)C(=O)/C1=C\c1ccco1`, the inhibition was inconclusive: 59.6%.
For `CC(=O)OC1COC(n2ccc3cc([N+](=O)[O-])ccc32)C(OC(C)=O)C1OC(C)=O` (stereo not given), the inhibition was inactive: -8.03%.
In the case of `COc1ccc(-c2cc(C(=O)NCC3CCCO3)c3ccccc3n2)cc1` (stereo not given), the inhibition is reported as inactive: -7.4%.
In the case of `Cc1cccc(OCCCC(=O)Nc2ccc(N3CCOCC3)cc2)c1`, the inhibition is reported as inconclusive: 40%.
For `CSc1ncccc1C(=O)OCc1cccc([N+](=O)[O-])c1`, the inhibition was inconclusive: 43.9%.
`COc1cc(/C=C(\C#N)c2ccccn2)cc(OC)c1O` was tested, and the inhibition was inactive: 7.21%.
`O=C(COc1ccccc1)Nc1cccc(-c2nc3ccccc3[nH]2)c1` was tested, and the inhibition was inconclusive: 38.5%.
In the case of `CCOc1cc(NC(=O)c2cccs2)c(OCC)cc1NC(=O)CCC(=O)NCc1ccccn1`, the inhibition is reported as inconclusive: 58.6%.
In the case of `COc1cc(C2=NOC(C(=O)Nc3cc(C)on3)C2)cc(OC)c1OC` (stereo not given), the inhibition is reported as inconclusive: 45.3%.
For `COc1ccc(C2=NOC(C(=O)NCc3cccs3)C2)cc1` (stereo not given), the inhibition was inactive: -3.82%.
`O=C(NCc1ccco1)Nc1cccs1` was tested, and the inhibition was inconclusive: 57.3%.
With `Cc1nn(C)c(NC(=O)c2ccc([N+](=O)[O-])cc2)c1Cl` the inhibition was inconclusive: 36.7%.
For `COc1ccc(/C=N/Nc2ccc([N+](=O)[O-])cc2)cc1Cn1cc([N+](=O)[O-])cn1`, the inhibition was inconclusive: 33%.
With `CCn1nc(C)c(CN2CCCC(CO)(Cc3cccc(Cl)c3)C2)c1C` (stereo not given) the inhibition was inconclusive: 51.1%.
With `COc1cccc(C(=O)NCc2ccc(N3CCN(C(=O)OC(C)(C)C)CC3)cc2)c1` the inhibition was inactive: 4.61%.
For `CCCN(CCC)CCNS(=O)(=O)c1ccc2c(c1)CCN2C(=O)C1CCC1`, the inhibition was inconclusive: 36.8%.
With `Cc1cc(NC(=O)c2cccc(S(=O)(=O)N3CCCCCC3)c2)n(-c2ccccn2)n1` the inhibition was inconclusive: 33%.
For `COC(=O)Cc1cc(=O)n(-c2ccccc2)[nH]1`, the inhibition was inactive: 20.8%.
In the case of `CN(C)c1cccc2c1c(NS(=O)(=O)c1cn(C)cn1)nn2C`, the inhibition is reported as inconclusive: 52.5%.
With `O=C(NCc1ccccn1)C1CCN(S(=O)(=O)N2CCC3(CC2)OCCO3)CC1` the inhibition was inconclusive: 40.1%.
